Data: patent US20180296523A1, “USE OF POLYMETHOXYLATED FLAVONES TO AMELIORATE CIRCADIAN RHYTHM DISORDERS” (THE BOARD OF REGENTS OF THE UNIVERSITY OF TEXAS SY, priority 2017, published 2018)

Tested on: clock genes and metabolic output genes in mouse liver
Experiment: Liver gene expression in HFD-fed WT mice (qPCR, Western blot, microarray)
Format: in vivo
Conditions: for number of genes with altered expression, nobiletin/HF: microarray
Description: For qPCR analysis, cells were split into 6-well plates at an initial density of 3×10^5 cells and incubated for 2-4 days before synchronization (5 μM Fsk or 100 nM Dex) followed by compound treatment. RNA samples were prepared by using PureXtract RNAsol for cDNA synthesis and real-time PCR (GenDEPOT) was performed with a MaxPro3000 Thermocycler (Agilent). qPCR primers used are listed in the table shown in Example 4. Whole cell lysates from cells similarly grown and treated in 60 mm dishes and tissue extracts were prepared as described (Yoo et al., 2013) and subjected to Western blot analysis (GenDEPOT). Antibodies for REV-ERBα (Pierce and Cell Signaling), PER1 (Lee et al., 2001) and other clock proteins (Yoo et al., 2013) were used. Total RNAs prepared from liver tissues from RC-fed, Vehicle-treated and HFD-fed, Vehicle or NOB-treated WT mice for 10 weeks were reverse transcribed into cDNAs, which were then biotin-UTP labeled and hybridized to the Illumina mouse WG-6v2.0 Expression BeadChip. Genes with statistically significant fold change differences was clustered using centered correlation (Cluster 3.0) and then visualized as a heat map on Tree View. Moreover, genes with statistically significant differences derived from microarray analyses were imported into the Ingenuity Pathway Analysis (IPA, http://www.ingenuity.com). In IPA, differentially expressed genes are mapped to genetic networks in the Ingenuity Knowledge Database to generate a set of network and then ranked by score. Heatmaps were generated by using Cluster 3.0 program. ChIP-seq data analysis was conducted as previously described (Koike et al., 2012). The data discussed in this publication have been deposited in NCBI's Gene Expression Omnibus (Edgar et al., 2002) and are accessible through GEO Series accession number GSE78848. To characterize the molecular basis of nobiletin action in HFD-fed WT mice, studies focused on a major metabolic organ, the liver, in which we observed a strong protection by nobiletin was observed. Specifically, total RNAs prepared from liver tissues from RC.Veh and HF.Veh or HF.nobiletin WT mice for 10 weeks were reverse transcribed into cDNAs, which were then biotin-UTP labeled and hybridized to the Illumina mouse WG-6v2.0 Expression BeadChip. The data discussed in this publication have been deposited in the National Center for Biotechnology Information's Gene Expression Omnibus (GEO) and are accessible through GEO Series accession number GSE78848. Real-time qPCR and western blotting analyses of circadian gene expression were conducted as previously described (Yoo et al., 2013). Primers used were as follows: […]

COc1ccc(-c2cc(=O)c3c(OC)c(OC)c(OC)c(OC)c3o2)cc1OC [nobiletin]
number of genes altered by HFD and reversed by nobiletin (at both time points (ZT2 and ZT14)): 56 genes
number of genes altered by HFD and reversed by nobiletin (at one time point (ZT2 or ZT14)): 251 genes
number of genes with altered expression, nobiletin/HF (ZT2 (third value of the list)): 915 genes
number of genes with altered expression, nobiletin/HF (ZT14 (fourth value of the list)): 243 genes
